# Out of some 330,000 compounds screened, about 100 (0.03%) were called active. Inconclusive means that the source gave no clear call. Such entries were picked first, then a sample of the others. Calls come from the whole dose curve; as a rule, active = well fitted inhibition curve with a large enough effect; inconclusive = small, poorly fitted or top-dose-only effect; inactive = flat fitted curve, though single readings scatter. Potencies of inconclusive entries are doubtful fits and often do not repeat.
# Test system: Chaperonin Mm-Cpn (Methanococcus maripaludis)
# Experiment: Inhibitors of TCP-1 ring complex (TRiC) of Methanococcus maripaludis (MmCpn): qHTS; note: nearly all actives have a fitted effect of over 80% in size;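 for Potency: enzyme at 25 nM with ATP substrate at 10 µM during the reaction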
# Settings: purified Mm-Cpn ATPase, ADP Transcreener TR-FRET; activity, negative = inhibition: at the top concentration
# Summary of the method: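 Quantitative HTS used 25 nM Mm-CPN and 10 uM ATP in magnesium/KCl Tris buffer, pH 7.4, with 1 mM DTT. Hydrolysis ran 30 min at 37°C; ADP was read by HTRF.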
# % is set by controls: 0 for no effect and ±100 for the full control effect; potency is the fitted concentration of half-maximal effect.
SMILES,"activity, negative = inhibition",Potency
CN1CCN(C(=S)Nc2ccc(S(N)(=O)=O)cc2)CC1,inactive: -1.57%,–
Cc1cccc(N2CCN(C(=S)Nc3ccc4nc(N5CCN(C)CC5)cc(C)c4c3)CC2)c1C,–,"inconclusive: 100 µM [inhibitor, single point]"
COc1ccc(Oc2ccc(C(F)(F)F)cc2NC(=O)c2ccc(F)cc2)cc1,–,"inconclusive: 79.4 µM [inhibitor, single point]"
C[C@@H]1CN([C@H](C)CO)C(=O)c2cc(NC(=O)Nc3ccc(F)cc3)ccc2O[C@H]1CN(C)C(=O)Nc1ccc(C(F)(F)F)cc1,–,"inconclusive: 22.4 µM [inhibitor, single point]"
COC(=O)c1cc2c(N)c(C(=O)c3ccc(Cl)cc3)sc2nc1C(OC)OC,–,"inconclusive: 25.1 µM [inhibitor, single point]"
Cc1ccccc1-n1ncc2c1CC(C)(C)CC2NC(=O)CCN1CCCCC1=O (stereo not drawn),–,"inconclusive: 8.91 µM [inhibitor, single point]"
CCCCn1c(/N=C/c2cc(OC)ccc2O)nc2ccccc21,–,"inconclusive: 63.1 µM [inhibitor, partial curve, poor fit]"
O=C(c1cc2sccc2n1Cc1ccc(F)cc1)N1CCc2ccccc21,–,"inconclusive: 56.2 µM [inhibitor, partial curve, poor fit]"
CCn1c(C)nnc1SCC(=O)NC1CCCCCC1,–,"inconclusive: 12.6 µM [inhibitor, single point]"
CN(C)CCC1c2ccc(Cl)cc2CCc2cccnc21 (stereo not drawn) (tested in a mixture with another compound),inactive: 3.04%,–
CCC(=O)Nc1ccc(Cl)c(NC(=S)NC(=O)COc2ccccc2)c1,inactive: 0.675%,–
CCOC(=O)N1CCN(C2CCCN(C(=O)c3ccccc3C(F)(F)F)C2)CC1 (stereo not drawn),inactive: -2.78%,–
COc1ccc(S(=O)(=O)N2CC=C(C(=O)Nc3ccc(NC(C)=O)cc3)CC2)cc1,inactive: -2.58%,–
CCOc1ccc(/C(O)=C2/C(=O)C(=O)N(c3ccccn3)C2c2ccc(F)cc2)c(C)c1 (stereo not drawn),–,"inconclusive: 126 µM [inhibitor, partial curve, poor fit]"
Cc1ccc(S(=O)(=O)c2c(N)n(Cc3ccco3)c3nc4ccccc4nc23)cc1C,–,"inconclusive: 224 µM [inhibitor, partial curve, poor fit]"
Cc1cc(C(=O)CCl)c(C)n1CCc1ccccc1,inactive: -3.63%,–
CCC(C)C(=O)Nc1nc(C)c(-c2csc(Nc3cc(Cl)ccc3OC)n2)s1 (stereo not drawn),–,"inconclusive: 112 µM [inhibitor, partial curve, poor fit]"
O=S(=O)(NC(=S)NC1CCCCC1)c1ccccc1,–,"inconclusive: 56.2 µM [inhibitor, single point]"
COC(=O)[C@@H]1[C@@H](C#N)C2(c3ccccc3-c3ccccc32)N(c2ccc(Cl)cc2)N1C#N,inactive: -0.375%,–
COc1ccc(CCNS(=O)(=O)c2cn(C)c(=O)n(C)c2=O)cc1,–,"inconclusive: 28.2 µM [inhibitor, partial curve, poor fit]"
CC(C)NC(=O)c1cc(-c2cccs2)on1,–,"inconclusive: 251 µM [inhibitor, partial curve, poor fit]"
CCOC(=O)c1cnc(SCC(=O)c2ccccc2)nc1N,inactive: -2.21%,–
Cc1nnc(C)n1/N=C/c1ccc(-c2ccccc2)cc1,–,"inconclusive: 70.8 µM [inhibitor, single point]"

# Of the compounds above, these contain a thiophene ring, fused or not.
SMILES,"activity, negative = inhibition",Potency
COC(=O)c1cc2c(N)c(C(=O)c3ccc(Cl)cc3)sc2nc1C(OC)OC,–,"inconclusive: 25.1 µM [inhibitor, single point]"
O=C(c1cc2sccc2n1Cc1ccc(F)cc1)N1CCc2ccccc21,–,"inconclusive: 56.2 µM [inhibitor, partial curve, poor fit]"
CC(C)NC(=O)c1cc(-c2cccs2)on1,–,"inconclusive: 251 µM [inhibitor, partial curve, poor fit]"

# The list continues.

SMILES,"activity, negative = inhibition",Potency
O=C(c1cccc(Cl)c1)N1CCn2c1nc1ccccc12,inactive: -2.74%,–
COc1ccccc1N1CCN(C(=O)c2cc(S(=O)(=O)N3CCCCC3)ccc2C)CC1,–,"inconclusive: 56.2 µM [inhibitor, single point]"
CCOC(=O)N1CCN(C(=O)CNC(=O)Cc2ccc(Cl)cc2)CC1,–,"inconclusive: 20 µM [inhibitor, single point]"
O=C(Nc1nc(-c2ccc(S(=O)(=O)N3CCCCCC3)cc2)cs1)c1cccs1,–,"inconclusive: 22.4 µM [inhibitor, partial curve, poor fit]"
COc1ccc(C(C(=O)NC2CCCCC2)N(C(=O)Cc2c[nH]c3ccccc23)c2ccccc2)cc1OC (stereo not drawn),–,"inconclusive: 100 µM [inhibitor, single point]"
CSc1cnn(-c2ccccc2)c(=O)c1SC,–,"inconclusive: 56.2 µM [inhibitor, partial curve, poor fit]"
CN(C)C(=O)c1ccc2c3c(cccc13)CC2,–,"inconclusive: 15.8 µM [inhibitor, partial curve, poor fit]"
CC1=C(C(=O)OCC(C)C)C(c2cccc(F)c2)N2C(=O)C(C)SC2=N1 (stereo not drawn),–,"inconclusive: 50.1 µM [inhibitor, single point]"
CC(=O)N(CCC1(C(C)C)CCOC(C)(C)C1)Cc1ccco1 (stereo not drawn),–,"inconclusive: 20 µM [inhibitor, single point]"
O=C(CCn1c(=S)[nH]c2ccccc2c1=O)NCCc1ccc(Cl)cc1,–,"inconclusive: 100 µM [inhibitor, single point]"
COc1ccc(C(=O)O)cc1S(=O)(=O)NCc1ccccn1,inactive: 0.951%,–
COC(=O)CN(c1ccccc1F)S(=O)(=O)c1ccccc1,–,"inconclusive: 12.6 µM [inhibitor, single point]"
COc1ccc(C(=O)CSC2=NS(=O)(=O)c3cc(Cl)ccc3N2)cc1,inactive: 1.21%,–
O=C(CN1C(=O)NC2(CCCC2)C1=O)Nc1ccc(Cl)c(C(F)(F)F)c1,–,"inconclusive: 50.1 µM [inhibitor, single point]"
CCN(CC)S(=O)(=O)c1ccc(C(=O)Nc2nnc(COC)o2)cc1,–,"inconclusive: 100 µM [inhibitor, single point]"
O=C1c2ccccc2C(=O)C1(CO)c1ccc(OC(F)F)cc1,–,"inconclusive: 17.8 µM [inhibitor, single point]"
O=C(COC(=O)c1ccc(Br)o1)Nc1ccc(N2CCOCC2)cc1,inactive: -0.22%,–
c1ccc(-c2c(-c3ccccc3)n(Cc3ccco3)c3ncnc(NCCCn4ccnc4)c23)cc1,inactive: -3.17%,–
Cc1cc(C)n(CCCNCC(O)c2ccccc2)n1 (stereo not drawn),–,"inconclusive: 100 µM [inhibitor, partial curve, poor fit]"
O=C(NC1CC2CCC(C1)N2Cc1ccccc1)c1ccccc1Br (stereo not drawn),inactive: -0.427%,–
Cc1ccc(-c2[nH]c(=O)n3ccncc23)s1,–,"inconclusive: 25.1 µM [inhibitor, partial curve, poor fit]"
Cc1ccc(S(=O)(=O)Nc2nncs2)cc1,inactive: 1.31%,–
O=C(CSc1ncnc2scc(-c3ccccc3)c12)NCc1ccc2c(c1)OCO2,–,"inconclusive: 100 µM [inhibitor, single point]"

SMILES,"activity, negative = inhibition",Potency
O=S(=O)(c1ccc(F)cc1)N1CCN(CCOc2ccccc2)CC1,inactive: -2.4%,–
Cc1ccc2[nH]c(=O)c3cc(C(=O)N(C)c4ccccc4C)sc3c2c1,–,"inconclusive: 22.4 µM [inhibitor, single point]"
COc1ccccc1/C=C/CN1CCC(Oc2ccc(C(=O)N3CCCC3)cc2)CC1,inactive: -0.0304%,–
Cc1ccc(NNC(=O)c2cc(C(C)(C)C)nn2Cc2ccccc2)cc1,inactive: 0.417%,–
Cc1ccc(C(C)C)c(OCCCN(C)Cc2ccccc2)c1,inactive: -0.0327%,–
CC(CN1CCN(C)CC1)OC(=O)c1ccccc1Cl (stereo not drawn),–,"inconclusive: 100 µM [inhibitor, single point]"
Cc1ccc(S(=O)(=O)NCCC(=O)NC2CC2)cc1,–,"inconclusive: 3.98 µM [inhibitor, partial curve, poor fit]"
Cc1ccn2c(=O)nc(SCC(=O)OCc3ccccc3)nc2c1,–,"inconclusive: 141 µM [inhibitor, partial curve, poor fit]"
Cc1ccc(S(=O)(=O)N2CCC(C(=O)Nc3nnc(-c4ccc(F)cc4)s3)CC2)cc1,–,"inconclusive: 50.1 µM [inhibitor, single point]"
COc1ccccc1-c1n[nH]c(=S)n1-c1ccccc1,–,"inconclusive: 200 µM [inhibitor, partial curve, poor fit]"
NS(=O)(=O)c1ccc(CNC(=O)c2cc(-c3ccccn3)nc3ccc(Cl)cc23)cc1,–,"inconclusive: 79.4 µM [inhibitor, single point]"
CN(C)c1ccc(/C=N/Nc2nncc3ccccc23)cc1,–,"inconclusive: 22.4 µM [inhibitor, single point]"
Cc1cc(NC(=O)c2ccccc2Cl)n(C(C)(C)C)n1,inactive: -3.13%,–
CCc1ccccc1-n1nnnc1SCC(=O)Nc1ccc(N2CCN(C)CC2)cc1,inactive: -1.49%,–
CCCOc1ccc(-c2nnn(CC(=O)c3ccc4c(c3)OCCO4)n2)cc1,–,"inconclusive: 100 µM [inhibitor, partial curve, poor fit]"
COc1ccc(F)cc1C(=O)C1CCCN(Cc2ccc(Oc3ncccn3)cc2)C1 (stereo not drawn),inactive: -0.662%,–
Oc1ccc(-c2[nH]ncc2-c2cnn(-c3ccccc3)c2)c(O)c1,–,"inconclusive: 10 µM [inhibitor, single point]"
O=C(c1ccc(Cl)cc1)N1CCN(c2ccc(F)cc2)CC1,–,"inconclusive: 50.1 µM [inhibitor, single point]"
C[C@H](CO)N1C[C@H](C)[C@@H](CN(C)CC2CCCCC2)Oc2c(NC(=O)CCC(F)(F)F)cccc2C1=O,–,"inconclusive: 20 µM [inhibitor, single point]"
COc1ccc(N/C(=C(/C(Cl)=C(Cl)Cl)[N+](=O)[O-])n2nnc3ccccc32)cc1OC,–,"inconclusive: 79.4 µM [inhibitor, single point]"
COc1ccc(N(C)S(=O)(=O)c2cccc(C(=O)NC3CCCC3)c2)cc1,–,"inconclusive: 100 µM [inhibitor, single point]"
Cc1cc(Cl)c(OCCOCCN2CCN(C)CC2)c(Br)c1,–,"inconclusive: 22.4 µM [inhibitor, single point]"
